PMC11892601
No constants are given. Whether binding was seen depends on the method and setting. For part of these data: In cells and extracts the contact can be indirect. Blank lines part the entries; values can stand above or below the molecule they belong to.

Assays:
[1] = target: T1, biotinylated G3BP1 190-208 CPP (rat) (UniProt D3ZYS7); experiment: pull-down; 30 µg biotinylated CPP in 10 µL PBS injected into rat sciatic nerve; nerves harvested 16 h later, lysed in RIPA + 0.01% Rapigest; approx. 500 µg protein on M-280 streptavidin Dynabeads, 4 °C, 3 h; three washes; immunoblot for G3BP1 or G3BP2; only the target purified
T1 sequence (peptide, biotin (position not stated)): VVEPEPEPEPEPEPEPVSD

[2] = target: T1, biotinylated G3BP1 190-208 CPP (rat); experiment: pull-down + cross-linking; recombinant human G3BP1 mixed with equimolar biotinylated CPP in 1x PBS, 10 min at 37 °C; 1% formaldehyde 15 min at RT, quenched with 125 mM glycine; M-280 streptavidin Dynabeads, 4 °C, 3 h; washed with RIPA + SDS; immunoblot for G3BP1; both purified

binding [1]: no binding
Molecule: G3BP1 (endogenous, rat sciatic nerve) (from UniProt D3ZYS7 1-465)

binding [2]: no binding
Molecule: recombinant human G3BP1 (OriGene) (from UniProt Q13283 1-466)

binding [1]: no binding
B1: G3BP2 (endogenous, rat sciatic nerve) (protein, UniProt Q6AY21 1-449)
chain: MVMEKPSPLLVGREFVRQYYTLLNKAPEYLHRFYGRNSSYVHGGVDASGKPQEAVYGQNDIHHKVLSLNFSECHTKIRHVDAHATLSDGVVVQVMGLLSNSGQPERKFMQTFVLAPEGSVPNKFYVHNDMFRYEDEVFGDSEPELDEESEDEVEEEQEDRQPSPEPVQENANSAYYEAHPVTNGIEEPLEESSHEPEPEPESETKTEELKPQAEEKHLEELEEKSATPPPTEPASLPQEPPKPRVDAKPEVQSQPPRVREQRPRERPGFPPRGPRPGRGDTEQNDSDNRRIIRYPDSHQLFVGNLPHDIDENELKEFFMSFGNVVELRINTKGVGGKLPNFGFVVFDDSEPVQRILIAKPIMFRGEVRLNVEEKKTRAARERETRGGGDDRRDIRRNDRGPGGPRGIVGGGMMRDRDGRGPPPRGGMTQKLGSGRGTGQMEGRFTGQRR
